T/C and survivor count data for 17 molecules are collected here from PubChem BioAssay AID248 (DTP/NCI, 2004).

This assay concerns L1210 leukemia ip in BDF1 mice, survival T/C. In words: NCI In Vivo Anticancer Drug Screen. Data for tumor model L1210 Leukemia (intraperitoneal) in B6D2F1 (BDF1) mice. As to conditions: T/C endpoint: mean survival time, higher T/C = longer survival.
Where [1] appears, read: dose: 100.0 mg/kg/injection, schedule: Q04DX003 (ip), vehicle: saline.
Where [2] appears, read: dose: 200.0 mg/kg/injection, schedule: Q04DX003 (ip), vehicle: saline.
Setting [3] is: dose: 400.0 mg/kg/injection, schedule: Q04DX003 (ip), vehicle: saline.
[4] abbreviates: dose: 200.0 mg/kg/injection, schedule: Q01DX001 (ip), vehicle: saline.
The mark [5] stands for this setting: dose: 400.0 mg/kg/injection, schedule: Q01DX001 (ip), vehicle: saline.
The mark [6] stands for this setting: dose: 400.0 mg/kg/injection, schedule: Q04DX003 (ip), vehicle: saline with Tween-80.

Each structure is given as a SMILES string. The list does not hold the whole screen: it is rich in T/C values a quarter to a half above the control, in often repeated tests (any T/C) and in doses without a T/C. Further doses and runs are listed elsewhere. T/C: endpoint of the treated group in % of that of the vehicle group. Some entries give survivors of the animals treated and no T/C: the source files T/C as zero there, which appears to mark a toxic dose or a test without result, not a measured value. Some doses without a T/C left all or most animals alive at the check, yet need not have been tolerated: survival well below the control is almost never listed, so the zero probably covers shortened survival too. Counts of survivors are from the toxicity check (mostly the fifth day) where no day follows; animals may have died later. Schedules are NCI's codes, taken here to give the interval after Q, in days (D) or hours (H), and the number of doses after X. Some schedules carry Z or #; the key to these is not given. Some structures stand for samples that the source files as different forms (salt, stereo form or complex); doses refer to the form tested. Where survival is the endpoint, this PubChem deposit counts one and a half times the control or more as active, and values a quarter to a half above the control carry no call in these data; other NCI protocols may use other cut-offs. Some doses were run more than once; the results are listed from low to high. Some T/C values are followed by the survivors on the day toxicity was checked, most often the fifth; where none is given, no animal had died by that day.

With `COc1cc(C=Nc2ccc(-c3csc(-c4ccccc4)n3)c(Cl)c2)ccc1N(CCCl)CCCl`, the T/C (dose: 6.0 mg/kg/injection, schedule: Q01DX009 (ip), vehicle: other) is 137 % of control; the T/C (dose: 8.0 mg/kg/injection, schedule: Q01DX009 (ip), vehicle: carboxymethylcellulose (CMC)) is 128 % of control; the T/C (dose: 9.0 mg/kg/injection, schedule: Q01DX009 (ip), vehicle: other) was 135 % of control; the T/C (dose: 12.0 mg/kg/injection, schedule: Q01DX001 (ip), vehicle: carboxymethylcellulose (CMC)) is 126 % of control; the T/C (dose: 13.0 mg/kg/injection, schedule: Q01DX009 (ip), vehicle: carboxymethylcellulose (CMC)) is 137 % of control; the T/C (dose: 13.0 mg/kg/injection, schedule: Q01DX009 (ip), vehicle: other) was 138 % of control. Further, the T/C (dose: 13.3 mg/kg/injection, schedule: Q01DX009 (ip), vehicle: carboxymethylcellulose (CMC)) was 144 % of control; the T/C (dose: 19.0 mg/kg/injection, schedule: Q01DX001 (ip), vehicle: carboxymethylcellulose (CMC)) is 129 % of control; the T/C (dose: 20.0 mg/kg/injection, schedule: Q01DX001 (ip), vehicle: carboxymethylcellulose (CMC)) is 135 % of control; the T/C (dose: 20.0 mg/kg/injection, schedule: Q01DX009 (ip), vehicle: carboxymethylcellulose (CMC)) is 140 % of control; the T/C (dose: 29.0 mg/kg/injection, schedule: Q01DX001 (ip), vehicle: carboxymethylcellulose (CMC)) was 134 % of control; the T/C (dose: 30.0 mg/kg/injection, schedule: Q01DX001 (ip), vehicle: carboxymethylcellulose (CMC)) is 131 % of control. The T/C was 138 and 146 % of control (dose: 44.0 mg/kg/injection, schedule: Q01DX001 (ip), vehicle: carboxymethylcellulose (CMC)); 146 % of control (dose: 45.0 mg/kg/injection, schedule: Q01DX001 (ip), vehicle: carboxymethylcellulose (CMC)); 138 % of control (dose: 66.0 mg/kg/injection, schedule: Q01DX001 (ip), vehicle: carboxymethylcellulose (CMC)); 138 % of control (dose: 100.0 mg/kg/injection, schedule: Q01DX001 (ip), vehicle: carboxymethylcellulose (CMC)); 138 % of control (dose: 150.0 mg/kg/injection, schedule: Q01DX001 (ip), vehicle: carboxymethylcellulose (CMC)). The survivor count (dose: 44.0 mg/kg/injection, schedule: Q01DX009 (ip), vehicle: carboxymethylcellulose (CMC)) is reported as 6 of 6; the survivor count (dose: 45.0 mg/kg/injection, schedule: Q01DX009 (ip), vehicle: carboxymethylcellulose (CMC)) is reported as 6 of 6; the survivor count (dose: 66.0 mg/kg/injection, schedule: Q01DX009 (ip), vehicle: carboxymethylcellulose (CMC)) is given as 5 of 6; the survivor count (dose: 100.0 mg/kg/injection, schedule: Q01DX009 (ip), vehicle: carboxymethylcellulose (CMC)) is given as 0 of 6; the survivor count (dose: 150.0 mg/kg/injection, schedule: Q01DX009 (ip), vehicle: carboxymethylcellulose (CMC)) was 0 of 6; the survivor count (dose: 400.0 mg/kg/injection, schedule: Q01DX001 (ip), vehicle: carboxymethylcellulose (CMC)) is on record as 0 of 4.

On to `N=C(N)c1ccc(OCCCOc2ccc(C(=N)N)cc2Br)c(Br)c1`, for which the T/C by setting is: (dose: 12.0 mg/kg/injection, schedule: Q01DX Z (ip), vehicle: methylcellulose (MC)) 127 % of control; (dose: 25.0 mg/kg/injection, schedule: Q01DX009 (ip), vehicle: saline) 129 [4 of 6 alive] and 134 % of control. The survivor count is given as 0 of 6 (dose: 90.0 mg/kg/injection, schedule: Q01DX Z (ip), vehicle: methylcellulose (MC)); 1 of 6 under setting [1]; 0 of 6 under setting [2]; 2 of 6 under setting [3].

Take `CC(C1=C(CCN(C)C)Cc2ccccc21)c1ccccn1` (stereo unspecified): the survivor count is given as 0 of 6 under setting [4] and 0 of 6 under setting [5].

As to `N/C(CCl)=N\OC(=O)c1ccccc1`, the survivor count was 0 of 3 (dose: 100.0 mg/kg/injection, schedule: Q04DX002 (ip), vehicle: Klucel (hydroxypropylcellulose) (HPC)); 0 of 3 (dose: 200.0 mg/kg/injection, schedule: Q04DX002 (ip), vehicle: Klucel (hydroxypropylcellulose) (HPC)); 0 of 3 (dose: 400.0 mg/kg/injection, schedule: Q04DX002 (ip), vehicle: Klucel (hydroxypropylcellulose) (HPC)).

Take `NC(=O)c1ncn(C2OC(CO)C(O)C2O)c1N` (stereo unspecified): the survivor count under setting [5] is reported as 2 of 4.

`O=C(COc1ccccc1)CC(O)(C(F)(F)F)C(F)(F)F`: the survivor count under setting [6] is listed as 6 of 6.

With `COc1nc(N)c(C(N)=O)cc1C#N`, the survivor count is, setting by setting: (dose: 175.0 mg/kg/injection, schedule: Q04DX003 (ip), vehicle: Klucel (hydroxypropylcellulose) (HPC)) 2 of 6; (dose: 350.0 mg/kg/injection, schedule: Q04DX003 (ip), vehicle: Klucel (hydroxypropylcellulose) (HPC)) 1 of 6.

For the molecule `CC1=Nc2ccccc2N=C(C)C1`, the survivor count under setting [5] is 0 of 4 and the survivor count under setting [6] is 1 of 6.

`O=NN(CCCl)C(=O)N(C1CCCCC1)C1CCCCC1`: where the note is “dose: 266.0 mg/kg/injection, schedule: Q01DX009 (ip), vehicle: carboxymethylcellulose (CMC)”, the T/C is 130 % of control.

With `c1ccc(Cc2cccc[n+]2Cc2ccccc2)cc1`, the survivor count runs as follows: (dose: 50.0 mg/kg/injection, schedule: Q04DX003 (ip), vehicle: saline) 2 of 3; under setting [1], 0 of 3; under setting [2], 0 of 3; under setting [3], 0 of 3.

As for `CCC/C=C/CCN1CC1`, the survivor count was 1 of 6 (dose: 80.0 mg/kg/injection, schedule: Q01DX001 (ip), vehicle: saline); 4 of 6 under setting [4]; 0 of 6 under setting [5].

Consider `NNC(=O)c1ccccn1`, for which the survivor count is, setting by setting: (dose: 200.0 mg/kg/injection, schedule: Q01DX009 (ip), vehicle: water) 0 of 6; (dose: 300.0 mg/kg/injection, schedule: Q01DX001 (ip), vehicle: water) 0 of 6; (dose: 400.0 mg/kg/injection, schedule: Q01DX009 (ip), vehicle: water) 0 of 6; (dose: 500.0 mg/kg/injection, schedule: Q01DX001 (ip), vehicle: water) 0 of 6.

With `O=C(CS)OCCOC(=O)CS`, the survivor count (dose: 400.0 mg/kg/injection, schedule: Q01DX009 (ip), vehicle: Klucel (hydroxypropylcellulose) (HPC)) was 5 of 6.

Consider `O=C(O)c1cc(Cl)cc2c1-c1ccc(Cl)cc1C2Br` (stereo unspecified), for which the survivor count (dose: 37.5 mg/kg/injection, schedule: Q01DX009 (ip), vehicle: carboxymethylcellulose (CMC)) is reported as 3 of 6; the survivor count (dose: 75.0 mg/kg/injection, schedule: Q01DX009 (ip), vehicle: carboxymethylcellulose (CMC)) is recorded as 4 of 6; the survivor count (dose: 300.0 mg/kg/injection, schedule: Q01DX001 (ip), vehicle: carboxymethylcellulose (CMC)) is given as 1 of 6.

For `CCCCCCCCSCCC(=O)O`, for the setting “dose: 400.0 mg/kg/injection, schedule: Q01DX009 (ip), vehicle: saline with Tween-80”, the survivor count is 6 of 6.

Consider `CCOC(=O)NC(S(=O)(=O)O)S(=O)(=O)O.[Tl]`, for which the survivor count is reported as 1 of 3 (dose: 50.0 mg/kg/injection, schedule: Q01DX001 (ip), vehicle: saline with Tween-80) and 0 of 3 (dose: 100.0 mg/kg/injection, schedule: Q01DX001 (ip), vehicle: saline with Tween-80).

On to `CC(C)(Cl)CCC1=C(Cl)C(=O)c2ccccc2C1=O`, for which the survivor count by setting is: (dose: 20.0 mg/kg/injection, schedule: Q01DX001 (ip), vehicle: water) 1 of 4; (dose: 40.0 mg/kg/injection, schedule: Q01DX001 (ip), vehicle: water) 0 of 4; (dose: 50.0 mg/kg/injection, schedule: Q01DX001 (ip), vehicle: water) 0 of 4; (dose: 80.0 mg/kg/injection, schedule: Q01DX001 (ip), vehicle: water) 0 of 4; (dose: 100.0 mg/kg/injection, schedule: Q01DX001 (ip), vehicle: water) 0 of 4; (dose: 200.0 mg/kg/injection, schedule: Q01DX001 (ip), vehicle: water) 0 of 4. Also, the survivor count (dose: 400.0 mg/kg/injection, schedule: Q01DX001 (ip), vehicle: water) is 0 of 4.
